This passage reports binding results from patent publication US20110039770A1, “INHIBITORS OF PROTEIN KINASE C ISOFORMS AND USES THEREOF” (PHARMAGAP INC., priority 2005, published 2011).

Amino acid sequences for entries named in this document (tags omitted). A change or cut given only in a name is not applied to a line headed by its entry. Chains listed by the source or under a name are the forms on record and can include a tag or linker.
UniProt P05771: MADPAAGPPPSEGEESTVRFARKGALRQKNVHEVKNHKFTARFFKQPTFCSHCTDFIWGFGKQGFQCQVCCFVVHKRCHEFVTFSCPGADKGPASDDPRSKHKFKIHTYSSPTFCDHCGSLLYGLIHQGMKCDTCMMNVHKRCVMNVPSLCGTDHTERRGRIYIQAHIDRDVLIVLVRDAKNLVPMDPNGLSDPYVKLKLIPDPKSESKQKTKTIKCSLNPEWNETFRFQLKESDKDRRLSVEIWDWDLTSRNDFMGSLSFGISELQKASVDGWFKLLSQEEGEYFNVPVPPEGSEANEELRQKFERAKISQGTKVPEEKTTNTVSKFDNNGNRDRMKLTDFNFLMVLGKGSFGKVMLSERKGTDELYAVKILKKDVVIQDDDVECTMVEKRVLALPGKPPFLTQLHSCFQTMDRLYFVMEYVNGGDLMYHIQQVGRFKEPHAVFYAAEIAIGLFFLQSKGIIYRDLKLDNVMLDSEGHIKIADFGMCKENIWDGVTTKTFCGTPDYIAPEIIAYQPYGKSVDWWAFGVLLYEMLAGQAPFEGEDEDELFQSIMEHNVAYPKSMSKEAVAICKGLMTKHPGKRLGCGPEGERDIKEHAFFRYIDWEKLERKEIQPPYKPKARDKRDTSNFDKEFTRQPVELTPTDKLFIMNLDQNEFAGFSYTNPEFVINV
PKC-βII in extracts of human cell lines (P05771, form named): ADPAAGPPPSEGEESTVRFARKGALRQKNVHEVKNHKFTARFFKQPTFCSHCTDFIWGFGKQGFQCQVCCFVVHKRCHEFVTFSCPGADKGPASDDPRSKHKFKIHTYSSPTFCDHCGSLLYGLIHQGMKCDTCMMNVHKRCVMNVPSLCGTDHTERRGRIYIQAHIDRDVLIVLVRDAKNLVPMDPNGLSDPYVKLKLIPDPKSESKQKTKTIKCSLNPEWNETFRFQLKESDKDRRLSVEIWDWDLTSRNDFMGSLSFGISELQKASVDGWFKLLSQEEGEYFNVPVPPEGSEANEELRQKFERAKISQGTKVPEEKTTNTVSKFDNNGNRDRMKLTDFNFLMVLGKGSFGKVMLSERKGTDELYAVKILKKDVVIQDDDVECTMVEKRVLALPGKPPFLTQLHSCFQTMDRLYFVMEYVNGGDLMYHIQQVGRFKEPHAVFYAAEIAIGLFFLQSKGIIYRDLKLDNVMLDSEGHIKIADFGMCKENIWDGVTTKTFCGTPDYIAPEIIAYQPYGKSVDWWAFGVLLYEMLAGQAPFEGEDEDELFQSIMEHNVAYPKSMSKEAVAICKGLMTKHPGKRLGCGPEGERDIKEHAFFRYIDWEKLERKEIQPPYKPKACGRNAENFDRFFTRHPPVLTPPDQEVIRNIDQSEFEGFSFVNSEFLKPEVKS
PKC-βII, purified isoform (P05771, form named): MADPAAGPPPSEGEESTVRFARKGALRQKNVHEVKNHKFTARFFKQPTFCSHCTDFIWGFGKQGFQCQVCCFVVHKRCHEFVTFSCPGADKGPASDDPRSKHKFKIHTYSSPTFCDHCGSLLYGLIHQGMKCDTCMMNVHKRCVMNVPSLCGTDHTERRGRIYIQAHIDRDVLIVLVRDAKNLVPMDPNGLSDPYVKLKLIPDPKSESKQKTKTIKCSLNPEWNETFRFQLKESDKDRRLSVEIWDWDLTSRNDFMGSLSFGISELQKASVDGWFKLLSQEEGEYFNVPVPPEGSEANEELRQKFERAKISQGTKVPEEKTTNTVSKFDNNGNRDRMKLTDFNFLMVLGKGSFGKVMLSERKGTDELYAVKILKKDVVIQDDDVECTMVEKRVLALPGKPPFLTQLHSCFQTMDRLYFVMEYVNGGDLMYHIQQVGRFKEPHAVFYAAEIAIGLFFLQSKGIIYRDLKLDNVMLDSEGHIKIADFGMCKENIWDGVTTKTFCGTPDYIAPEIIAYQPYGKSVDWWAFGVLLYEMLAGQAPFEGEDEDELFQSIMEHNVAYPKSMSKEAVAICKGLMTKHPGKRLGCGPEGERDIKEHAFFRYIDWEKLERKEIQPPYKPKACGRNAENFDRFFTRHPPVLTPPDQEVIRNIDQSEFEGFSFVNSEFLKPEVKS
UniProt Q02156: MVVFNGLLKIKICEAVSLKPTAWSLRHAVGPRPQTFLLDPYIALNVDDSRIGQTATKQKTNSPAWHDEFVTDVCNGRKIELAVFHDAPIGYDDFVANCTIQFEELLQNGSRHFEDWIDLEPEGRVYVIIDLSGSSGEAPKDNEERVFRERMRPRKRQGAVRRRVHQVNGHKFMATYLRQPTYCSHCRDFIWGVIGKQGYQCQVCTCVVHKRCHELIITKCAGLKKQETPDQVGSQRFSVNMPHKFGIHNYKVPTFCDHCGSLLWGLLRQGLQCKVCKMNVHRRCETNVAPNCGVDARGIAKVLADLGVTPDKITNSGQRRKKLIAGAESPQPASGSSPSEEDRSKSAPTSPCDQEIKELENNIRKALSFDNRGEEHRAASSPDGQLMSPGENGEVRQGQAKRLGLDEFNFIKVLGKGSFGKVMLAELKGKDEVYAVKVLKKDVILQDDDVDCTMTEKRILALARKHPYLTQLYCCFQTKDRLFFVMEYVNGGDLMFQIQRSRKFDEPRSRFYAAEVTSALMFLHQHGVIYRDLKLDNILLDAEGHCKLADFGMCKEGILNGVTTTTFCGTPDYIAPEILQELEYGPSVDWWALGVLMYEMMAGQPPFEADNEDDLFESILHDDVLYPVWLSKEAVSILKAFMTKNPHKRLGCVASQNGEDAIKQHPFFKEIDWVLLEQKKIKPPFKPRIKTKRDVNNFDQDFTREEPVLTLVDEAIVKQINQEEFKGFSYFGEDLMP

No constants are given. Whether binding was seen depends on the method and setting. Some binding calls cover weakened binding; strength is not graded here.

The target in assay [1] is PKC-βII in extracts of human cell lines (human) (UniProt P05771). Kind of assay: Western-blot competition, cell extracts, catalytic fragment band: PRE at 10X/20X the anti-PKC beta II primary antibody concentration competes with that antibody; band densitometry (lower band = PRE bound).
Assay [2] has the same target. The assay is described as follows: cell extract Western blot competition, summary grade. Background: A western blot detects proteins with antibodies after separation by electrophoresis.
The target of assay [3] is PKC-βI, purified isoform (UniProt P05771). The assay is described as follows: competitive ELISA, purified isoform. (ELISA stands for enzyme-linked immunosorbent assay.)
The target in assay [4] is PKC-α, purified isoform (UniProt P17252). The assay is described as follows: competitive ELISA, purified isoform.
Assay [5] concerns the target PKC-βI, purified isoform (UniProt P05771). Kind of assay: competitive ELISA, purified isoforms.
The target in assay [6] is PKC-α, purified isoform (UniProt P17252). The assay is described as follows: competitive ELISA, purified isoforms.
Assay [7] concerns the target PKC-βI, purified isoform (UniProt P05771). Kind of assay: purified isoform competition ELISA, summary grade.
A further assay deals with PKC-ε, purified isoform (UniProt Q02156). Kind of assay: purified isoform competition ELISA, summary grade.
For assay [8], the target named is PKC-α, purified isoform (UniProt P17252). Kind of assay: purified isoform competition ELISA, summary grade.
Assay [9] addresses PKC-ε (endogenous, IMR-32 lysate) (human) (UniProt Q02156). Kind of assay: Western competition Protocol B, IMR-32 extract.
Assay [10] deals with T1, PKC-ζ in extracts of human cell lines (human) (UniProt Q05513).
T1 sequence (looked up): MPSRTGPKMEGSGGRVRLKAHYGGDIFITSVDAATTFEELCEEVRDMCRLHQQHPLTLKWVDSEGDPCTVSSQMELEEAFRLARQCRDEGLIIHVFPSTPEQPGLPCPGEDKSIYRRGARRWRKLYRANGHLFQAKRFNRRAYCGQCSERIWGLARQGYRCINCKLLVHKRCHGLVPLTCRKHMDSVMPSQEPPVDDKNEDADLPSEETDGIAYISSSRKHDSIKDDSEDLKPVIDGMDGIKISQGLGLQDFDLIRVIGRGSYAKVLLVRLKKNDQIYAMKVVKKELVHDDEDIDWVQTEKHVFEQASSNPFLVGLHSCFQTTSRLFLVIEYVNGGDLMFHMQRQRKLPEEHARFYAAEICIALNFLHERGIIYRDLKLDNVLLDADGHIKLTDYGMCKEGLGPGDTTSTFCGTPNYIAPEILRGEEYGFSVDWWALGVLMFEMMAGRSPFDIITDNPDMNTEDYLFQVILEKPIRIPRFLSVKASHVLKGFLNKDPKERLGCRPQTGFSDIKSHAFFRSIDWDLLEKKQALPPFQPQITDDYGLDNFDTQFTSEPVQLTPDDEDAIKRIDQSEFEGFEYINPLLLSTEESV
Kind of assay: cell extract Western blot competition, summary grade.

Assay [11] addresses PKC-βII, purified isoform (UniProt P05771). The assay is described as follows: purified isoform competition ELISA, summary grade.
In assay [12] the target is PKC-βII (endogenous, IMR-32 lysate) (human) (UniProt P05771). Kind of assay: Western competition Protocol B, IMR-32 extract.
The target of assay [13] is PKC-βII in extracts of human cell lines (human) (UniProt P05771). Kind of assay: Western-blot competition, cell extracts: PRE at 10X/20X the anti-PKC beta II primary antibody concentration competes with that antibody; band densitometry (lower band = PRE bound).

Take KDAQNLI (N-terminal acetyl (Ac-); C-terminal amide (-NH2)) [PRE 12]: the binding result in assay [1] and in [2] was “binds” in each case.

With AKGIQEVKGGDAQNLIGISI (N-terminal acetyl (Ac-); C-terminal amide (-NH2)) [PRE 3], the binding result with PKC-βI, purified isoform [3] is given as “binds”; in the assay with PKC-α, purified isoform [4], “binds”; with PKC-βI, purified isoform [5], “binds”; with PKC-α, purified isoform [6] it was “binds”; with PKC-βI, purified isoform [7], “binds”; with PKC-ε, purified isoform, “binds”. Further, the binding entry is listed as “binds” with PKC-α, purified isoform [8] and “binds” in assay [9].

Turning to KDANQLIGISI (N-terminal acetyl (Ac-); C-terminal amide (-NH2)) [PRE 6], the binding entry with PKC-βI, purified isoform [7] is recorded as “binds”.

For KDAQNLIGISI (N-terminal acetyl (Ac-); C-terminal amide (-NH2)) [PRE 4], the binding entry with PKC-α, purified isoform [4] is listed as “binds”; in assay [1], “binds”; in assay [2], “binds”; in assay [10], “no binding”; with PKC-βI, purified isoform [7], “binds”; in assay [11] it was “binds”. Also, the binding entry with PKC-α, purified isoform [8] is reported as “binds”; in assay [12], “binds”.

With ILEDKGGDAQNLIGISI [PRE 8], the binding result in assay [13] and in assay [2] was “binds” throughout.

As to AKGIQEVKGGKDAQNLIGISI (N-terminal acetyl (Ac-); C-terminal amide (-NH2)) [PRE 5], the binding result in assay [13] and in assay [2] was “binds” throughout.

For the molecule ISIGILNQADK (N-terminal acetyl (Ac-); C-terminal amide (-NH2)) [PRE 10], in assay [11], the binding result is given as “binds”.

KDAQNLIGISL (C-terminal amide (-NH2)) [PRE 2]: the binding entry in assay [9] is reported as “binds”.

As for RDAQNLIGISI (N-terminal acetyl (Ac-); C-terminal amide (-NH2)) [PRE 11], the binding result in the assay with PKC-α, purified isoform [8] is reported as “binds”.

For the molecule RRKKGGKDFVVKR [PRE 1], the binding result is “binds” in the assay with PKC-βI, purified isoform [3] and “binds” with PKC-βI, purified isoform [7].

Consider ISIGILQNADK (N-terminal acetyl (Ac-); C-terminal amide (-NH2)) [PRE 7], for which, in the assay with PKC-α, purified isoform [8], the binding entry is recorded as “binds”.
